Values of other authors as cited in patent US8821932B2, “Pharmaceutical compositions” (priority 2006, dated 2014).
Some entries share one result that the patent states for a list of compounds.

Conditions: in water

CC[C@H](C)C(=O)O[C@H]1C[C@@H](C)C=C2C=C[C@H](C)[C@H](CC[C@@H]3C[C@@H](O)CC(=O)O3)[C@H]21 [lovastatin, Lovastatin]
range of solubilities: 0.0013 to 0.0015 mg/mL
